Assay results as given in patent EP0594764B1 (dated 1993).
End groups of sequences in plain letters are not given here.

Test: general procedure: Fmoc solid-phase peptide synthesis; DIPCDI and HOBt
Conditions: whole synthesis, 210 nm

YFVIKINLFYNSNSPVWKKKQPALF
final HPLC purity: more than 80% purity
